Some entries share one result that the patent states for a list of compounds.
System: dermal papilla cells
Assay: Measurement of viability of dermal papilla cells (MTT); promotion of growth of dermal papilla cells
Type: cell-based, human
Conditions: maximum increase over tested concentrations (0.5, 5 and 50 μM)
Procedure: For cell culture, Dulbecco's Modified Eagle Medium (DMEM), fetal bovine serum (FBS), 0.25% trypsin-1 mM EDTA, and penicillin-streptomycin were used, and dermal papilla cells were cultured at 37° C. in a humidified 5% CO2. The medium was replaced twice a week, and the cultured dermal papilla cells were washed with PBS within 6-7 days. Next, the attached cells were separated by 0.05% trypsin-0.02% EDTA, centrifuged, and then subcultured for experiments. Specifically, 200 μl of dermal papilla cells were dispensed into each well of a 96-well plate at a density of 1×10^4 cells/well, and cultured under the conditions of 37° C. and 5% CO2 for 18 hours so as to be attached to each well. After 18 hours, the medium was removed, and 200 μl of samples was added to each well having the cells attached thereto, followed by culture for 24 hours. After the medium was removed, 100 μl of a solution of 3-(4,5-dimethylthiazol)-2,5-diphenyltetrazoliumbromide(MTT), prepared by dissolving MTT in PBS at a concentration of 500 μg/ml, was added to the cultured cells, followed by culture for 4 hours under the same conditions as described above. The formed formazan crystal was dissolved in DMSO, and the absorbance at 570 nm was measured using an ELISA reader. The measured OD values ranging from 0.00 to 3.50 were used for the experimental results. […]

| Compound | dermal papilla cell proliferation rate |
| --- | --- |
| CCC(C)C(=O)SCCNC(=O)CCNC(=O)[C@H](O)C(C)(C)CO (stereo partly drawn) [S1, 2-methylbutyryl-D-pantetheine] | up to 140% |
| isobutyl formate-D-pantetheine [S6] | up to 140% |
